According to publication PMC6451123, “The G3-U70-independent tRNA recognition by human mitochondrial alanyl-tRNA synthetase” (Nucleic Acids Research, 2019):
Results are given in words; binding and its absence hold for the method and conditions named. Tags and fused reporters may be left off the sequences shown.

Molecular target: mature mouse mtAlaRS (Ser26-Leu980) with a C-terminal His6-tag (mouse) (UniProt Q14CH7)
Test: SEC; gel filtration of the purified enzyme; apparent molecular mass from the elution volumes of three standard proteins (apoferritin 443 kDa, yeast alcohol dehydrogenase 150 kDa, bovine serum albumin 66 kDa); both purified

B1: mature mouse mtAlaRS (Ser26-Leu980) with a C-terminal His6-tag (enzyme, UniProt Q14CH7 26-980)
chain: STEPGPPHGAAVRDAFLSFFRDRHGHRLVPSATVRPRGDPSLLFVNAGMNQFKPIFLGTVDPRSEMAGFRRVVNSQKCVRAGGRHNDLEDVGRDLSHHTFFEMLGNWAFGGEYFKEEACSMAWELLTQVYGIPEDRLWVSYFSGDSQTGLDPDLETRDIWLSLGVPASRVLSFGPQENFWEMGDTGPCGPCTEIHYDLAGGVGSPQLVELWNLVFMQHYREADGSLQLLPQRHVDTGMGLERLVAVLQGKRSTYDTDLFSPLLDAIHQSCGAPPYSGRVGAADEGRIDTAYRVVADHIRTLSVCIADGVSPGMSGAPLVLRRILRRAVRYSTEVLQAPPGFLGSLVPVVVETLGSAYPELEKNSVKIASLVSEDEAAFLASLQRGRRIIDRTVKRLGPSDLFPAEVAWSLSLSGNLGIPLDLVELMLEEKGVKLDTAGLEQLAQKEAQHRAQQAEADQEDRLCLDVHALEELHRQGIPTTDDSPKYNYTLHPNGDYEFGLCEARVLQLYSETGTAVASVGAGQRCGLLLDRTNFYAEQGGQASDRGYLVRTGQQDMLFPVAGAQLCGGFILHEAMAPERLQVGDQVQLYVDKAWRMGCMVKHTATHLLSWALRQTLGPTTEQRGSHLNPERLRFDVATQTLLTTEQLRTVESYVQEVVGQDKPVFMEEVPLAHTARIPGLRSLDEVYPDPVRVVSVGVPVAHALGPASQAAMHTSVELCCGTHLLSTGAVGDLVIIGERQLVKGITRLLAITGEQAQQAREVGQSLSQEVEAASERLSQGSRDLPEAHRLSKDIGRLTEVAESAVIPQWQRQELQTTLKMLQRRANTAIRKLEKGQATEKSQELLKRHSEGPLIVDTVSAESLSVLVKVVRQLCKQAPSISVLLLSPQPTGSVLCACQVAQDATPTFTAEAWALAVCSHMGGKAWGSRVVAQGTGHTADLEAALGTARAYALSQL
binding: no binding
